Measured values reported in US20130236458A1 (AbbVie / Abbott, published 2013).
No constants are given. Whether binding was seen depends on the method and setting. Some entries that bind do so weakly or less than the wild type.

Sequences of proteins named here, by UniProt entry; tags and fusion partners are left off. Residues count along the entry.
UniProt P35225, residues 35-146: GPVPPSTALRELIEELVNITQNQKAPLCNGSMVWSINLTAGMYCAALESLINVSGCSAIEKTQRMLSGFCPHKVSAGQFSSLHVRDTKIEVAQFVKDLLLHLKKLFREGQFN

B1: DVD2172 (bispecific antibody)
VH: EVQLVQSGAEVKKPGASVKVSCKASGYTFTTYGVSWVRQAPGQGLEWMGEIYPGNYNTYYNEKFRGRVTMTTDTSTSTAYMELRSLRSDDTAVYYCARWRTSYFSDYGYFDYWGQGTTVTVSSASTKGPEVQLVQSGAEVKKPGSSVKVSCKASGGSFGGYGIGWVRQAPGQGLEWMGGITPFFGFADYAQKFQGRVTITADESTTTAYMELSGLTSDDTAVYYCARDPNEFWNGYYSTHDFDSWGQGTTVTVSS
VL: DVVMTQSPLSLPVTLGQPASISCRSSQSLVHSHGNTYLHWYQQRPGQSPRLLIYTVSNRFSGVPDRFSGSGSGTDFTLKISRVEAEDVGVYYCSQSTHVPYTFGGGTKVEIKRTVAAPEIVLTQSPDFQSVTPKEKVTITCRASQDIGSELHWYQQKPDQPPKLLIKYASHSTSGVPSRFSGSGSGTDFTLTINGLEAEDAGTYYCHQTDSLPYTFGPGTKVDIKR
notes: DVD-Ig; also called DVD2172H; DVD2172L
B2: DVD2173 (bispecific antibody)
VH: EVQLVQSGAEVKKPGSSVKVSCKASGGSFGGYGIGWVRQAPGQGLEWMGGITPFFGFADYAQKFQGRVTITADESTTTAYMELSGLTSDDTAVYYCARDPNEFWNGYYSTHDFDSWGQGTTVTVSSASTKGPEVQLVQSGAEVKKPGASVKVSCKASGYTFTTYGVSWVRQAPGQGLEWMGEIYPGNYNTYYNEKFRGRVTMTTDTSTSTAYMELRSLRSDDTAVYYCARWRTSYFSDYGYFDYWGQGTTVTVSS
VL: EIVLTQSPDFQSVTPKEKVTITCRASQDIGSELHWYQQKPDQPPKLLIKYASHSTSGVPSRFSGSGSGTDFTLTINGLEAEDAGTYYCHQTDSLPYTFGPGTKVDIKRTVAAPDVVMTQSPLSLPVTLGQPASISCRSSQSLVHSHGNTYLHWYQQRPGQSPRLLIYTVSNRFSGVPDRFSGSGSGTDFTLKISRVEAEDVGVYYCSQSTHVPYTFGGGTKVEIKR
notes: DVD-Ig; also called DVD2173H; DVD2173L
B3: DVD2174 (bispecific antibody)
VH: EVQLVQSGAEVKKPGASVKVSCKASGYTFTTYGVSWVRQAPGQGLEWMGEIYPGNYNTYYNEKFRGRVTMTTDTSTSTAYMELRSLRSDDTAVYYCARWRTSYFSDYGYFDYWGQGTTVTVSSASTKGPEVQLVQSGAEVKKPGSSVKVSCKASGGSFGGYGIGWVRQAPGQGLEWMGGITPFFGFADYAQKFQGRVTITADESTTTAYMELSGLTSDDTAVYYCARDPNEFWNGYYSTHDFDSWGQGTTVTVSS
VL: DVVMTQSPLSLPVTLGQPASISCRSSQSLVHSHGNTYLHWYQQRPGQSPRLLIYTVSNRFSGVPDRFSGSGSGTDFTLKISRVEAEDVGVYYCSQSTHVPYTFGGGTKVEIKRTVAAPSVFIFPPEIVLTQSPDFQSVTPKEKVTITCRASQDIGSELHWYQQKPDQPPKLLIKYASHSTSGVPSRFSGSGSGTDFTLTINGLEAEDAGTYYCHQTDSLPYTFGPGTKVDIKR
notes: DVD-Ig; also called DVD2174H; DVD2174L
B4: DVD2175 (bispecific antibody)
VH: EVQLVQSGAEVKKPGSSVKVSCKASGGSFGGYGIGWVRQAPGQGLEWMGGITPFFGFADYAQKFQGRVTITADESTTTAYMELSGLTSDDTAVYYCARDPNEFWNGYYSTHDFDSWGQGTTVTVSSASTKGPEVQLVQSGAEVKKPGASVKVSCKASGYTFTTYGVSWVRQAPGQGLEWMGEIYPGNYNTYYNEKFRGRVTMTTDTSTSTAYMELRSLRSDDTAVYYCARWRTSYFSDYGYFDYWGQGTTVTVSS
VL: EIVLTQSPDFQSVTPKEKVTITCRASQDIGSELHWYQQKPDQPPKLLIKYASHSTSGVPSRFSGSGSGTDFTLTINGLEAEDAGTYYCHQTDSLPYTFGPGTKVDIKRTVAAPSVFIFPPDVVMTQSPLSLPVTLGQPASISCRSSQSLVHSHGNTYLHWYQQRPGQSPRLLIYTVSNRFSGVPDRFSGSGSGTDFTLKISRVEAEDVGVYYCSQSTHVPYTFGGGTKVEIKR
notes: DVD-Ig; also called DVD2175H; DVD2175L
B5: DVD2177 (bispecific antibody)
VH: EVQLVQSGAEVKKPGSSVKVSCKASGGSFGGYGIGWVRQAPGQGLEWMGGITPFFGFADYAQKFQGRVTITADESTTTAYMELSGLTSDDTAVYYCARDPNEFWNGYYSTHDFDSWGQGTTVTVSSASTKGPSVFPLAPEVQLVQSGAEVKKPGASVKVSCKASGYTFTTYGVSWVRQAPGQGLEWMGEIYPGNYNTYYNEKFRGRVTMTTDTSTSTAYMELRSLRSDDTAVYYCARWRTSYFSDYGYFDYWGQGTTVTVSS
VL: EIVLTQSPDFQSVTPKEKVTITCRASQDIGSELHWYQQKPDQPPKLLIKYASHSTSGVPSRFSGSGSGTDFTLTINGLEAEDAGTYYCHQTDSLPYTFGPGTKVDIKRTVAAPDVVMTQSPLSLPVTLGQPASISCRSSQSLVHSHGNTYLHWYQQRPGQSPRLLIYTVSNRFSGVPDRFSGSGSGTDFTLKISRVEAEDVGVYYCSQSTHVPYTFGGGTKVEIKR
notes: DVD-Ig; also called DVD2177H; DVD2177L
B6: DVD2190 (bispecific antibody)
VH: EVQLVQSGAEVKKPGASVKVSCKASGYTFTSYWMHWVRQAPGQGLEWIGNINPKGGSNIYNEKFQGRVTMTRDTSISTAYMELSRLRSDDTAVYYCARLDYFGDSFDLWGQGTTVTVSSASTKGPEVQLVQSGAEVKKPGSSVKVSCKASGGSFGGYGIGWVRQAPGQGLEWMGGITPFFGFADYAQKFQGRVTITADESTTTAYMELSGLTSDDTAVYYCARDPNEFWNGYYSTHDFDSWGQGTTVTVSS
VL: DIQMTQSPSSLSASVGDRVTITCRASQGIRNYLNWYQQKPGKAPKLLIYYASNLEVGVPSRFSGSGSGTDYTLTISSLQPEDFATYYCQQDNRFPYTFGGGTKVEIKRTVAAPEIVLTQSPDFQSVTPKEKVTITCRASQDIGSELHWYQQKPDQPPKLLIKYASHSTSGVPSRFSGSGSGTDFTLTINGLEAEDAGTYYCHQTDSLPYTFGPGTKVDIKR
notes: DVD-Ig; also called DVD2190H; DVD2190L
B7: DVD2191 (bispecific antibody)
VH: EVQLVQSGAEVKKPGSSVKVSCKASGGSFGGYGIGWVRQAPGQGLEWMGGITPFFGFADYAQKFQGRVTITADESTTTAYMELSGLTSDDTAVYYCARDPNEFWNGYYSTHDFDSWGQGTTVTVSSASTKGPEVQLVQSGAEVKKPGASVKVSCKASGYTFTSYWMHWVRQAPGQGLEWIGNINPKGGSNIYNEKFQGRVTMTRDTSISTAYMELSRLRSDDTAVYYCARLDYFGDSFDLWGQGTTVTVSS
VL: EIVLTQSPDFQSVTPKEKVTITCRASQDIGSELHWYQQKPDQPPKLLIKYASHSTSGVPSRFSGSGSGTDFTLTINGLEAEDAGTYYCHQTDSLPYTFGPGTKVDIKRTVAAPDIQMTQSPSSLSASVGDRVTITCRASQGIRNYLNWYQQKPGKAPKLLIYYASNLEVGVPSRFSGSGSGTDYTLTISSLQPEDFATYYCQQDNRFPYTFGGGTKVEIKR
notes: DVD-Ig; also called DVD2191H; DVD2191L
B8: DVD2192 (bispecific antibody)
VH: EVQLVQSGAEVKKPGASVKVSCKASGYTFTSYWMHWVRQAPGQGLEWIGNINPKGGSNIYNEKFQGRVTMTRDTSISTAYMELSRLRSDDTAVYYCARLDYFGDSFDLWGQGTTVTVSSASTKGPEVQLVQSGAEVKKPGSSVKVSCKASGGSFGGYGIGWVRQAPGQGLEWMGGITPFFGFADYAQKFQGRVTITADESTTTAYMELSGLTSDDTAVYYCARDPNEFWNGYYSTHDFDSWGQGTTVTVSS
VL: DIQMTQSPSSLSASVGDRVTITCRASQGIRNYLNWYQQKPGKAPKLLIYYASNLEVGVPSRFSGSGSGTDYTLTISSLQPEDFATYYCQQDNRFPYTFGGGTKVEIKRTVAAPSVFIFPPEIVLTQSPDFQSVTPKEKVTITCRASQDIGSELHWYQQKPDQPPKLLIKYASHSTSGVPSRFSGSGSGTDFTLTINGLEAEDAGTYYCHQTDSLPYTFGPGTKVDIKR
notes: DVD-Ig; also called DVD2192H; DVD2192L
B9: DVD2193 (bispecific antibody)
VH: EVQLVQSGAEVKKPGSSVKVSCKASGGSFGGYGIGWVRQAPGQGLEWMGGITPFFGFADYAQKFQGRVTITADESTTTAYMELSGLTSDDTAVYYCARDPNEFWNGYYSTHDFDSWGQGTTVTVSSASTKGPEVQLVQSGAEVKKPGASVKVSCKASGYTFTSYWMHWVRQAPGQGLEWIGNINPKGGSNIYNEKFQGRVTMTRDTSISTAYMELSRLRSDDTAVYYCARLDYFGDSFDLWGQGTTVTVSS
VL: EIVLTQSPDFQSVTPKEKVTITCRASQDIGSELHWYQQKPDQPPKLLIKYASHSTSGVPSRFSGSGSGTDFTLTINGLEAEDAGTYYCHQTDSLPYTFGPGTKVDIKRTVAAPSVFIFPPDIQMTQSPSSLSASVGDRVTITCRASQGIRNYLNWYQQKPGKAPKLLIYYASNLEVGVPSRFSGSGSGTDYTLTISSLQPEDFATYYCQQDNRFPYTFGGGTKVEIKR
notes: DVD-Ig; also called DVD2193H; DVD2193L
B10: DVD2195 (bispecific antibody)
VH: EVQLVQSGAEVKKPGSSVKVSCKASGGSFGGYGIGWVRQAPGQGLEWMGGITPFFGFADYAQKFQGRVTITADESTTTAYMELSGLTSDDTAVYYCARDPNEFWNGYYSTHDFDSWGQGTTVTVSSASTKGPSVFPLAPEVQLVQSGAEVKKPGASVKVSCKASGYTFTSYWMHWVRQAPGQGLEWIGNINPKGGSNIYNEKFQGRVTMTRDTSISTAYMELSRLRSDDTAVYYCARLDYFGDSFDLWGQGTTVTVSS
VL: EIVLTQSPDFQSVTPKEKVTITCRASQDIGSELHWYQQKPDQPPKLLIKYASHSTSGVPSRFSGSGSGTDFTLTINGLEAEDAGTYYCHQTDSLPYTFGPGTKVDIKRTVAAPDIQMTQSPSSLSASVGDRVTITCRASQGIRNYLNWYQQKPGKAPKLLIYYASNLEVGVPSRFSGSGSGTDYTLTISSLQPEDFATYYCQQDNRFPYTFGGGTKVEIKR
notes: DVD-Ig; also called DVD2195H; DVD2195L

Molecular target: Recombinant Human IL-13 (human, UniProt P35225 35-146, limits assumed)
Assay: SPR (Biacore)
Procedure: The BIACORE assay (Biacore, Inc, Piscataway, N.J.) determined the affinity of antibodies or DVD-Ig with kinetic measurements of on-rate and off-rate constants. Binding of antibodies or DVD-Ig proteins to a target antigen (for example, a purified recombinant target antigen) was determined by surface plasmon resonance-based measurements with a Biacore®1000 or 3000 instrument (Biacore® AB, Uppsala, Sweden) using running HBS-EP (10 mM HEPES [pH 7.4], 150 mM NaCl, 3 mM EDTA, and 0.005% surfactant P20) at 25° C. All chemicals were obtained from Biacore® AB (Uppsala, Sweden) or otherwise from a different source as described in the text. For example, approximately 5000 RU of goat anti-mouse IgG, (Fcγ), fragment specific polyclonal antibody (Pierce Biotechnology Inc, Rockford, Ill.) diluted in 10 mM sodium acetate (pH 4.5) was directly immobilized across a CM5 research grade biosensor chip using a standard amine coupling kit according to manufacturer's instructions and procedures at 25 μg/ml. Unreacted moieties on the biosensor surface were blocked with ethanolamine. Modified carboxymethyl dextran surface in flowcell 2 and 4 was used as a reaction surface. Unmodified carboxymethyl dextran without goat anti-mouse IgG in flow cell 1 and 3 was used as the reference surface. For kinetic analysis, rate equations derived from the 1:1 Langmuir binding model were fitted simultaneously to association and dissociation phases of all eight injections (using global fit analysis) with the use of Biaevaluation 4.0.1 software. Purified antibodies or DVD-Ig proteins were diluted in HEPES-buffered saline for capture across goat anti-mouse IgG specific reaction surfaces. Antibodies or DVD-Ig proteins to be captured as a ligand (25 μg/ml) were injected over reaction matrices at a flow rate of 5 μl/minute. The association and dissociation rate constants, kₒₙ (M⁻¹s⁻¹) and koff (s⁻¹) were determined under a continuous flow rate of 25 μl/minute. Rate constants were derived by making kinetic binding measurements at different antigen concentrations ranging from 10-200 nM. The equilibrium dissociation constant (M) of the reaction between antibodies or DVD-Ig proteins and the target antigen was then calculated from the kinetic rate constants by the following formula: KD=koff/kₒₙ. Binding was recorded as a function of time and kinetic rate constants were calculated.

Question: Which binding does the source give for B1 here?
Answer: binds

Question: B2 was tested. Which binding did it give?
Answer: binds

Question: For B3, which binding is on record?
Answer: binds

Question: With B4 as the binder, how does the binding read?
Answer: binds

Question: B5 was tested. Which binding did it give?
Answer: binds

Question: Which binding does the source give for B6 here?
Answer: binds

Question: B7 was tested. Which binding did it give?
Answer: binds

Question: With B8 as the binder, how does the binding read?
Answer: binds

Question: For B9, which binding is on record?
Answer: binds

Question: For B10, which binding is on record?
Answer: binds
